PubChem BioAssay AID1671195 | Yale University – 2021

Aim: 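Knockdowns that increase or decrease uptake of fluorescent LDL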 (primary screen)
Cells: human Huh7 hepatoma cells
Reagents: siRNA pool against human genes, 18 nM
Time to read-out: about 2 to 2.5 days of knockdown, then 8 h LDL uptake
Challenge: DiI-labelled LDL at 30 µg/ml for 8 h, in lipoprotein-deficient serum medium
Read-out: 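Fluorescent LDL signal imaged in cells, scaled to the plate median, robust z-score for each replicate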
Direction: robust z-score: higher = more LDL uptake after knockdown
Hit rule: 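a gene counts as active if at least two replicate z-scores exceed ±2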
Here is an unselected part of about 22,000 reagents. About 1,510 of them (6.9%) were called active. 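Active includes knockdowns raising or lowering LDL uptake; positive z-scores mean more uptake, negative mean less.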 Unmarked entries are inactive.

| gene knocked down | robust z-score, replicate 1 | robust z-score, replicate 2 | robust z-score, replicate 3 |
| --- | --- | --- | --- |
| CLDN14 (GeneID 23562) | -0.726 | -0.862 | -1.12 |
| NHLRC2 (GeneID 374354) | 0.374 | 0.159 | 1.86 |
| TMUB2 (GeneID 79089) | 1.08 | 0.214 | 0.78 |
| PPAT (GeneID 5471) | -0.305 | -0.395 | -0.398 |
| BAG3 (GeneID 9531) | -1.11 | -1.07 | -1.14 |
| RPA3P1 (GeneID 442058) | 0.0445 | 0.059 | -3.18 |
| ATP6V0B (GeneID 533) | -1.51 | -1.38 | -1.29 |
| OR52E4 (GeneID 390081) | 0.649 | 0.73 | 0.677 |
| ABCC4 (GeneID 10257) | -0.0754 | -0.0308 | -0.23 |
| NFRKB (GeneID 4798) | -0.794 | -1.14 | -0.495 |
| HYI (GeneID 81888) | -1.31 | -1.18 | -1.27 |
| ZNF300P1 (GeneID 134466) | 0.375 | 0.272 | 0.972 |
| CCDC14 (GeneID 64770) | 0.76 | 0.838 | 0.59 |
| HJURP (GeneID 55355) | -0.684 | -0.845 | -0.356 |
| ARL5A (GeneID 26225) | -0.686 | -0.494 | -0.883 |
| ZNF417 (GeneID 147687) | -1.05 | -0.77 | -0.716 |
| FOXI1 (GeneID 2299) | -0.233 | -0.35 | -0.264 |
| SMPDL3B (GeneID 27293) | -0.306 | 0.72 | 0.478 |
| NPTXR (GeneID 23467) | 1.12 | 0.957 | 0.839 |
| DDX3X (GeneID 1654) | 0.431 | -1.29 | -0.22 |
| UQCRB (GeneID 7381) | 0.813 | 0.225 | 1.25 |
| DDX46 (GeneID 9879) | 0.556 | -0.145 | 0.0222 |
| PYM1 (GeneID 84305) | 0.153 | 0.467 | 0.789 |
| LINC00939 (GeneID 400084) | -0.49 | -0.772 | -0.994 |
| ZNF878 (GeneID 729747) | 0.462 | 0.528 | 0.764 |
| HMGCS1 (GeneID 3157) | 0.781 | 3.71 | 1.26 |
| PSMB1 (GeneID 5689) | 1.25 | 0.706 | 1.27 |
| ABCD4 (GeneID 5826) | -0.856 | -0.759 | -0.87 |
| LOC392434 (retired record) (GeneID 392434) | -0.0321 | -0.0421 | 0.634 |
| ENO2 (GeneID 2026) | 2.47 (active) | 0.978 | 1.96 |
| TLN2 (GeneID 83660) | -0.884 | -0.665 | -0.162 |
| TPST2 (GeneID 8459) | -2.82 (active) | -2.39 | -2.54 |
| TMEM14B (GeneID 81853) | 1.34 | 0.973 | 1.04 |
| PPP1R42 (GeneID 286187) | 0.565 | 0.501 | 0.755 |
| CRYBG1 (GeneID 202) | -0.242 | -1.62 | -1.15 |
| LOC401619 (retired record) (GeneID 401619) | 4.06 (active) | 2.32 | 1.95 |
| HELZ (GeneID 9931) | 1.06 | 1.01 | 0.931 |
| XXYLT1 (GeneID 152002) | 0.941 | 0.621 | -0.409 |
| ARHGEF18 (GeneID 23370) | 0.425 | 0.111 | 0.27 |
| MEP1AP3 (GeneID 389747) | 4.28 (active) | 3.6 | 3.89 |
| DAP3 (GeneID 7818) | -0.143 | 0.988 | 0.239 |
| DOCK5 (GeneID 80005) | 0.653 | 1.24 | 2.19 |
| PNCK (GeneID 139728) | -0.112 | 0.387 | -1.37 |
| GANC (GeneID 2595) | -0.734 | -1.36 | -1.26 |
| IL5 (GeneID 3567) | -0.699 | -0.0211 | -0.0763 |
| FARSB (GeneID 10056) | -0.102 | -0.72 | -0.457 |
| EBI3 (GeneID 10148) | -0.246 | 0.83 | -0.143 |
| OLFM3 (GeneID 118427) | 0.808 | 1.17 | 1.84 |
| ALDOC (GeneID 230) | -0.267 | -0.422 | -0.626 |
| AP3S2 (GeneID 10239) | -0.413 | -0.994 | 1.69 |
| SLC6A1 (GeneID 6529) | -0.502 | -0.295 | -0.408 |
| HPF1 (GeneID 54969) | -0.312 | 0.219 | 0.282 |
| ACY1 (GeneID 95) | -0.216 | -0.398 | 0.256 |
| POLR1F (GeneID 221830) | 0.525 | 0.532 | 0.981 |
| UGT2B4 (GeneID 7363) | 0.594 | 0.642 | 0.642 |
| LOC389671 (retired record) (GeneID 389671) | -0.513 | -0.227 | -0.221 |
| UMODL1 (GeneID 89766) | -0.408 | -0.438 | -0.494 |
| SLC35G3 (GeneID 146861) | -1.14 | -1.79 | -1.72 |
| TRNT1 (GeneID 51095) | 1.35 | 0.831 | 1.24 |
| LOC441830 (retired record) (GeneID 441830) | -1.87 | -1.45 | -1.22 |
| CASQ2 (GeneID 845) | -1.37 | -0.939 | -0.914 |
| LOC439966 (retired record) (GeneID 439966) | 0.215 | 0.379 | 0.000731 |
| ARL17A (GeneID 51326) | 1.88 | 0.56 | 0.652 |
| NRTN (GeneID 4902) | -1.37 | -0.516 | -1.33 |
| LOC440160 (retired record) (GeneID 440160) | 1.64 | 1.62 | 2.07 |
| LINC02481 (GeneID 339988) | -0.0891 | -0.374 | -0.208 |
| LOC440761 (retired record) (GeneID 440761) | 1.55 | 0.82 | 0.838 |
| NPPA (GeneID 4878) | 0.638 | -0.365 | 0.611 |
| DIPK1C (GeneID 125704) | 0.448 | 0.342 | 0.162 |
| NOTCH2NLA (GeneID 388677) | 1.08 | -0.676 | 0.826 |
| ZNRF1 (GeneID 84937) | 0.93 | 0.711 | 0.768 |
| CNEP1R1 (GeneID 255919) | 0.829 | 1.26 | 0.783 |
| LOC440964 (retired record) (GeneID 440964) | -1.7 | -1.62 | -1.22 |
| LOC441460 (retired record) (GeneID 441460) | -0.73 | -0.739 | -0.726 |
| PDCD1LG2 (GeneID 80380) | -1.11 | -1.64 | -1.6 |
| SLC28A2 (GeneID 9153) | -0.81 | -0.966 | -0.584 |
| LGR4 (GeneID 55366) | -0.985 | -0.544 | -0.156 |
| PRSS57 (GeneID 400668) | 0.158 | 0.262 | 0.323 |
| CENPB (GeneID 1059) | 0.544 | 1.27 | 0.943 |
| LDLRAP1 (GeneID 26119) | -0.619 | 0.581 | -0.182 |
| WWP1P1 (GeneID 339843) | -0.104 | 0.206 | 0.28 |
| RAE1 (GeneID 8480) | -0.861 | -0.733 | -0.239 |
| SLC2A4 (GeneID 6517) | 0.994 | 0.42 | 1.8 |
| LOC138972 (retired record) (GeneID 138972) | 3.47 (active) | 3.16 | 2.44 |
| ACTL11P (GeneID 389120) | 0.147 | 0.0132 | 0.376 |
| SAMD11 (GeneID 148398) | 1.92 | 1.9 | 0.913 |
| ARHGAP21 (GeneID 57584) | -1.48 | -1.46 | -1.25 |

An excerpt taken from the entries so far, as a working copy:
| gene knocked down | robust z-score, replicate 1 | robust z-score, replicate 2 | robust z-score, replicate 3 |
| --- | --- | --- | --- |
| LOC392434 (retired record) (GeneID 392434) | -0.0321 | -0.0421 | 0.634 |
| ENO2 (GeneID 2026) | 2.47 (active) | 0.978 | 1.96 |
| TLN2 (GeneID 83660) | -0.884 | -0.665 | -0.162 |
| TPST2 (GeneID 8459) | -2.82 (active) | -2.39 | -2.54 |
| TMEM14B (GeneID 81853) | 1.34 | 0.973 | 1.04 |
| PPP1R42 (GeneID 286187) | 0.565 | 0.501 | 0.755 |
| CRYBG1 (GeneID 202) | -0.242 | -1.62 | -1.15 |
| LOC401619 (retired record) (GeneID 401619) | 4.06 (active) | 2.32 | 1.95 |
| HELZ (GeneID 9931) | 1.06 | 1.01 | 0.931 |
